PubChem BioAssay AID720703 – Peter MacCallum Cancer Centre, 2013

- Assay: 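Which kinases alter ERK activation once AT1R is stimulated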 (primary screen)
- Cell system: immortalised, SV40-transformed mammary epithelial cells from human, with stable expression of tagged AT1R
- Reagent: siRNA pool against human genes, 40 nM siRNA pool per well
- Duration: 72 h from transfection to lysis and read-out
- Challenge: angiotensin II stimulation (dose and duration not given); EGFR inhibitor AG1478 also listed
- Measured: 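AlphaScreen bead assay of phosphorylated ERK1/2 in cell lysates, corrected for well confluency, converted to robust z-scores and averaged across two technical replicate plates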
- Direction: phospho-ERK z-score: higher = more ERK phosphorylation after angiotensin II, relative to plate
- Active means: 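The 50 highest-ranked pools, at either end of the score, are marked as chosen for follow-up; the cut-off used is not reported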
- Meaning of the calls: active = picked for secondary screen; inactive = not picked
The deposit covers 714 reagents; this is a part drawn at random. 50 of them (7%) were called active. 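Chosen pools sit at both extremes, so both low and high scores count as candidates; some pools appear more than once.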

Target gene | phospho-ERK z-score, replicate mean | Outcome
ACVR2B (GeneID 93) | -0.25 | inactive
MAGI2 (GeneID 9863) | 1 | inactive
STKLD1 (GeneID 169436) | -0.03 | inactive
TGFBR3 (GeneID 7049) | 0.7 | inactive
EPHB2 (GeneID 2048) | -0.28 | inactive
SGK3 (GeneID 23678) | 1.38 | inactive
EGFR (GeneID 1956) | -1.31 | active
PSTK (GeneID 118672) | 0.38 | inactive
MYLK4 (GeneID 340156) | 0.48 | inactive
DGKA (GeneID 1606) | 1.82 | inactive
COMMD3 (GeneID 23412) | 0.54 | inactive
TLK2 (GeneID 11011) | 0.94 | inactive
STK32C (GeneID 282974) | 0.08 | inactive
MAST3 (GeneID 23031) | 0.32 | inactive
PKN1 (GeneID 5585) | -0.75 | inactive
SPHK2 (GeneID 56848) | -0.82 | inactive
PIP5K1A (GeneID 8394) | 0.82 | inactive
MAGI3 (GeneID 260425) | 0.22 | inactive
MET (GeneID 4233) | 0.58 | inactive
ULK2 (GeneID 9706) | -0.02 | inactive
ACVR1B (GeneID 91) | -0.74 | inactive
TNIK (GeneID 23043) | -0.3 | inactive
PMVK (GeneID 10654) | 2.91 | inactive
RPS6KB2 (GeneID 6199) | -0.8 | inactive
RPS6KA4 (GeneID 8986) | 3.32 | active
DGKK (GeneID 139189) | -0.2 | inactive
HK2 (GeneID 3099) | -0.16 | inactive
CHEK1 (GeneID 1111) | 1.27 | inactive
EPHA7 (GeneID 2045) | 1.38 | inactive
CSK (GeneID 1445) | 0.46 | inactive
DUSP21 (GeneID 63904) | 0.75 | inactive
ADPGK (GeneID 83440) | 1.32 | inactive
PRKDC (GeneID 5591) | 0.44 | inactive
MPP3 (GeneID 4356) | 1.56 | inactive
PHKA2 (GeneID 5256) | -0.25 | inactive
BMX (GeneID 660) | -1.23 | active
PCK2 (GeneID 5106) | 1.2 | inactive
CDK12 (GeneID 51755) | -0.73 | inactive
AKT2 (GeneID 208) | 0.4 | inactive
CDK19 (GeneID 23097) | -0.36 | inactive
PKMYT1 (GeneID 9088) | -0.8 | inactive
NEK2 (GeneID 4751) | 1.53 | inactive
PIK3R2 (GeneID 5296) | 1.81 | inactive
PFKFB1 (GeneID 5207) | -0.86 | inactive
STK32A (GeneID 202374) | -0.7 | inactive

Single entries from the entries so far:
Under “Outcome”, ULK2 (GeneID 9706) shows inactive
For “phospho-ERK z-score, replicate mean”, HK2 (GeneID 3099) reads -0.16
Result of DGKK (GeneID 139189) under “phospho-ERK z-score, replicate mean”: -0.2
Under “phospho-ERK z-score, replicate mean”, RPS6KB2 (GeneID 6199) has -0.8
EPHB2 (GeneID 2048), Outcome → inactive
MAST3 (GeneID 23031), Outcome → inactive
